Results are given in words; binding and its absence hold for the method and conditions named. Binding seen in cells or lysates may run through a third protein. Some results given as binding are weak or reduced against the parent protein; the word gives no strength. Where a sequence is shown, tags or fusion partners need not be part of it.
Legend:
[1] = molecular target: T1, Ccl1 (Saccharomyces cerevisiae) (UniProt P37366); assay: anti-FLAG co-IP, LC-MS/MS; pair by Table 2
T1 sequence (looked up): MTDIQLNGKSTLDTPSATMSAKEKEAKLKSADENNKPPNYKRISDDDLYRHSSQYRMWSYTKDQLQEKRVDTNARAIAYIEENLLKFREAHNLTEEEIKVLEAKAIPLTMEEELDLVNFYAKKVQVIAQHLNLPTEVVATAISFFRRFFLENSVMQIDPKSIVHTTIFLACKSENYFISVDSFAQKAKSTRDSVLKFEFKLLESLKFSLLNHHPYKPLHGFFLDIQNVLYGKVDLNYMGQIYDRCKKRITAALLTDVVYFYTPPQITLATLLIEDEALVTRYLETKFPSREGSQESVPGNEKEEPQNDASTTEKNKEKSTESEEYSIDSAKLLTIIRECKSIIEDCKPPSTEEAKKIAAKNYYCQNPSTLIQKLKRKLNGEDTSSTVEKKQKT

[2] = molecular target: T2, Kin28 (Saccharomyces cerevisiae) (UniProt P06242); assay: anti-FLAG co-IP, LC-MS/MS; pair by Table 2
T2 sequence (looked up): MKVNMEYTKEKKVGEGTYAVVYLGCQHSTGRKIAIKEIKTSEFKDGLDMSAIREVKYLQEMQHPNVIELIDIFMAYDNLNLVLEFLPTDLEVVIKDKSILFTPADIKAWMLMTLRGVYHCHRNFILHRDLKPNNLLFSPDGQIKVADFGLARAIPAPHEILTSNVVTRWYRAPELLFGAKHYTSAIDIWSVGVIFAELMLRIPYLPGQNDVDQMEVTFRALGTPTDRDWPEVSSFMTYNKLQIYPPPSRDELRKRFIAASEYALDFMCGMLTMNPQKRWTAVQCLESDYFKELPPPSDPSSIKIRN

[3] = molecular target: T3, TFB3 (Saccharomyces cerevisiae) (UniProt Q03290); assay: anti-FLAG co-IP, LC-MS/MS; pair by Table 2
T3 sequence (looked up): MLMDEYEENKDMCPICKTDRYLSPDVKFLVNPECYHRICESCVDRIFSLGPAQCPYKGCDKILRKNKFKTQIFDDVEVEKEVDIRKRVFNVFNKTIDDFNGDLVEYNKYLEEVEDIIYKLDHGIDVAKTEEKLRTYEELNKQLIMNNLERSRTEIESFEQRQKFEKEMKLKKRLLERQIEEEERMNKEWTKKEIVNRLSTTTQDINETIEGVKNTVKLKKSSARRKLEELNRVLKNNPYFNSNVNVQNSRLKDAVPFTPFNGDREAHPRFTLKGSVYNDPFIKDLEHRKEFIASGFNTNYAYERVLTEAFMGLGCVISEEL

[4] = molecular target: T1, Ccl1 (Saccharomyces cerevisiae); assay: anti-FLAG co-IP, LC-MS/MS
[5] = molecular target: T2, Kin28 (Saccharomyces cerevisiae); assay: anti-FLAG co-IP, LC-MS/MS
[6] = molecular target: T4, Met18/Mms19 (Saccharomyces cerevisiae) (UniProt P40469); assay: anti-FLAG co-IP, LC-MS/MS
T4 sequence (looked up): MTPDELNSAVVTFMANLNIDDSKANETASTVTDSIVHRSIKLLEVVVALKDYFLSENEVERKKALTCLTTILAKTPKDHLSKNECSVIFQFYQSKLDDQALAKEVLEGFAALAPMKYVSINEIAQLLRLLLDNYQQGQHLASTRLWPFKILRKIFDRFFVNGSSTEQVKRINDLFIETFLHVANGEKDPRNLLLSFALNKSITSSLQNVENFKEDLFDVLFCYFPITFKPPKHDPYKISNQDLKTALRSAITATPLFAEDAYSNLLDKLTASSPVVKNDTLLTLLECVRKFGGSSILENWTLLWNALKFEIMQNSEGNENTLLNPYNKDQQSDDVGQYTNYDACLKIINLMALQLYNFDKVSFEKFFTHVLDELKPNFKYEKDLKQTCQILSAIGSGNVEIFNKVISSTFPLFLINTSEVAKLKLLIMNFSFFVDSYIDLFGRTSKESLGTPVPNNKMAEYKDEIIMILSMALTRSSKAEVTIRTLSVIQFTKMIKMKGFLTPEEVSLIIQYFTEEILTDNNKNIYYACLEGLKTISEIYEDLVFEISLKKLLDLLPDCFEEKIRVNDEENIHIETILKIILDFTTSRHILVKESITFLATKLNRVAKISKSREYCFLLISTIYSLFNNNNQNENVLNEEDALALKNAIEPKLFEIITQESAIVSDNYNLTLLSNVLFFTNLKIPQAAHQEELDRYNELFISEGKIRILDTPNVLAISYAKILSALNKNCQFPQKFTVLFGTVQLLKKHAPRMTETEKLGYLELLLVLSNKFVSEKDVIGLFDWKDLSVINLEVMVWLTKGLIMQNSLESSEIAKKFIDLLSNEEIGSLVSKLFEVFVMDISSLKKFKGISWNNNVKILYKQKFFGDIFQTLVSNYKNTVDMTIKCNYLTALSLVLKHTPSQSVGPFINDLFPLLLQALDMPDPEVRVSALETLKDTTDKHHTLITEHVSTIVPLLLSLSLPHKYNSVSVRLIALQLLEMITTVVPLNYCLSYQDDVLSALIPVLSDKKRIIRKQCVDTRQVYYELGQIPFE

[7] = molecular target: T3, TFB3 (Saccharomyces cerevisiae); assay: anti-FLAG co-IP, LC-MS/MS

- binding [1]: binds
- binding [2]: binds
- binding [3]: binds
- binding [4]: binds
- binding [5]: binds
- binding [6]: binds
- binding [7]: binds
B1: Rad3 (protein, Saccharomyces cerevisiae, UniProt P06839 1-778, looked up)
chain: MKFYIDDLPVLFPYPKIYPEQYNYMCDIKKTLDVGGNSILEMPSGTGKTVSLLSLTIAYQMHYPEHRKIIYCSRTMSEIEKALVELENLMDYRTKELGYQEDFRGLGLTSRKNLCLHPEVSKERKGTVVDEKCRRMTNGQAKRKLEEDPEANVELCEYHENLYNIEVEDYLPKGVFSFEKLLKYCEEKTLCPYFIVRRMISLCNIIIYSYHYLLDPKIAERVSNEVSKDSIVIFDEAHNIDNVCIESLSLDLTTDALRRATRGANALDERISEVRKVDSQKLQDEYEKLVQGLHSADILTDQEEPFVETPVLPQDLLTEAIPGNIRRAEHFVSFLKRLIEYLKTRMKVLHVISETPKSFLQHLKQLTFIERKPLRFCSERLSLLVRTLEVTEVEDFTALKDIATFATLISTYEEGFLLIIEPYEIENAAVPNPIMRFTCLDASIAIKPVFERFSSVIITSGTISPLDMYPRMLNFKTVLQKSYAMTLAKKSFLPMIITKGSDQVAISSRFEIRNDPSIVRNYGSMLVEFAKITPDGMVVFFPSYLYMESIVSMWQTMGILDEVWKHKLILVETPDAQETSLALETYRKACSNGRGAILLSVARGKVSEGIDFDHQYGRTVLMIGIPFQYTESRILKARLEFMRENYRIRENDFLSFDAMRHAAQCLGRVLRGKDDYGVMVLADRRFSRKRSQLPKWIAQGLSDADLNLSTDMAISNTKQFLRTMAQPTDPKDQEGVSVWSYEDLIKHQNSRKDQGGFIENENKEGEQDEDEDEDIEMQ
